Laboratory results: PubChem BioAssay AID504784 (Drosophila RNAi Screening Center, 2011)
Screen: 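Genome-wide knock-down for genes giving too much or too little stored lipid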 (primary screen). System: Drosophila Kc167 embryonic cells. Reagent: long dsRNA against Drosophila genes, about 250 ng dsRNA per well. Duration: 4 days. Challenge: cells fed 400 µM oleic acid bound to BSA. Detection: 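Microscope images give a droplet-to-nucleus area ratio, taken as log and converted to a screen-wide B-score; higher values mean greater lipid storage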. Direction: droplet/nuclear area B-score: higher = more stored lipid (overstorage).
The screen tested about 17,000 reagents; shown is a random part of those with a known target gene and a result. 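Each column is one replicate's B-score; the combined score over replicates was not deposited, so single values may mislead.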 Reagents against one gene are numbered here. Reagent sequences are not shown.

| predicted target | reagent | droplet/nuclear area B-score, replicate 1 | droplet/nuclear area B-score, replicate 2 | droplet/nuclear area B-score, replicate 3 |
| --- | --- | --- | --- | --- |
| Trf4 | 1 | -0.798 | 1.54 | – |
| eIF4E7 | 1 | -1.64 | -2.18 | – |
| eIF4E7 | 2 | 1.3 | -1.48 | – |
| CG31710 | 1 | 1.61 | 0.551 | 1.73 |
| CG31710 | 2 | 2.65 | 0.188 | – |
| CG17803 | 1 | 1.13 | 0.603 | -0.194 |
| CG17803 | 2 | 1.72 | -0.355 | – |
| lmd | 1 | -0.967 | -0.204 | – |
| Drgx | 1 | -0.0117 | -2.13 | – |
| Drgx | 2 | 1.52 | -0.223 | – |
| GluRS-m | 1 | 0.462 | 0.92 | – |
| CG10562 | 1 | 0.194 | – | – |
| CG32751 | 1 | -1.3 | 1.03 | – |
| Cda4 | 1 | -0.49 | 0.148 | – |
| Cda4 | 2 | 0.0682 | 1.24 | – |
| Cda4 | 3 | 0.132 | -0.491 | – |
| Ntf-2 | 1 | 0.549 | -0.707 | – |
| Cpr67Fa1 | 1 | 1.37 | -0.037 | – |
| RPA2 | 1 | -0.0836 | 0.824 | – |
| CG42564 | 1 | 0.0173 | 0.146 | – |
| tkv | 1 | -0.349 | 0.483 | – |
| tkv | 2 | 0.27 | 0.0022 | – |
| regucalcin | 1 | 2.25 | 0.481 | 0.733 |
| CG33465 | 1 | -0.297 | 1.04 | – |
| Gr93b | 1 | 0.415 | 0.0506 | – |
| CG16721 | 1 | 0.5 | -0.992 | -0.089 |
| CG46298 | 1 | -0.201 | -0.636 | – |
| CG33232 (retired record) | 1 | 1.85 | -0.467 | – |
| CG33232 (retired record) | 2 | -0.23 | -1.29 | – |
| Pomp | 1 | 0.0017 | -2.24 | – |
| CG9302 | 1 | -0.268 | -0.645 | – |
| CG5568 | 1 | 0.12 | -0.239 | 1.11 |
| CG5568 | 2 | 0.672 | 0.407 | – |
| Drsl1 | 1 | -1.44 | -0.409 | – |
| CG14015 | 1 | -0.367 | 0.0781 | – |
| CG10011 | 1 | -1.58 | – | – |
| CG31789 | 1 | -0.811 | 0.153 | – |
| LManVI | 1 | 2.99 | -1.24 | – |
| CG32631 | 1 | -0.387 | – | 1.49 |
| CG30259 | 1 | -0.298 | -0.0453 | – |
| CG30259 | 2 | -0.507 | 0.599 | – |
| RpLP0 | 1 | 5.69 | 2.25 | – |
| RpLP0 | 2 | -0.597 | 6.79 | – |
| CG3335 | 1 | -1.31 | -1.44 | – |
| CG7611 | 1 | 1.37 | 0.678 | -0.142 |
| GstD10 | 1 | -0.0817 | 0.106 | – |
| Fer3 | 1 | 0.995 | 0.341 | – |
| r | 1 | 1.07 | 0.583 | – |
| r | 2 | 0.212 | -0.0904 | – |
| CG13326 | 1 | 0.0613 | -3.19 | – |
| jdp | 1 | 0.972 | -0.344 | – |
| Dark | 1 | -1.33 | 0.0009 | – |
| CG6847 | 1 | 0.167 | 0.602 | – |
| CG6847 | 2 | 1.27 | 2.03 | – |
| Ilp8 | 1 | 1.68 | -0.643 | – |
| Pcf11 | 1 | 2.6 | 1.18 | – |
| Nurf-38 | 1 | 0.72 | -0.535 | – |
| CG12945 | 1 | -0.502 | 1.99 | – |
| CG30279 (retired record) | 1 | 0.00527 | 1.25 | – |
| dgt5 | 1 | -0.261 | 1.64 | – |
| CG8366 | 1 | -2.61 | -1.33 | – |
| CG4949 | 1 | 0.723 | 0.703 | – |
| CG9970 | 1 | -0.0594 | 1.6 | – |
| PolI | 1 | 0.257 | 0.476 | – |
| CG4116 | 1 | 0.122 | -1.55 | – |
| tomboy40 | 1 | 0.0232 | 0.00794 | – |
| CG12343 | 1 | 0.00267 | -0.95 | – |
| SMSr | 1 | -3.09 | 1.32 | – |
| SMSr | 2 | -0.233 | 1.07 | – |
| mdu | 1 | -2.15 | -0.882 | 2.84 |
| mdu | 2 | – | 2 | – |
| X11L | 1 | 0.06 | 0.521 | 0.526 |
| X11L | 2 | -3.77 | -0.616 | – |
| CG14759 | 1 | -0.654 | -0.0166 | – |
| CG13615 | 1 | -0.402 | 1.07 | – |
| Bhmt | 1 | -1.65 | 0.0952 | – |
| CG9498 | 1 | 0.561 | 0.778 | – |
| Ance-3 | 1 | -0.107 | 0.241 | – |
| Ance-3 | 2 | -0.699 | 1.38 | – |
| CG4480 | 1 | -0.015 | -0.37 | – |
| Cpr11B | 1 | -1.05 | -1.61 | -1.14 |
| CG18636 | 1 | -1.31 | -0.269 | – |
| Ttc19 | 1 | 0.111 | 1.65 | – |
